# Test results reported in the supplement of paper PMC10338343.
# ± gives the standard deviation. This is a selection; strong and weak results do not stand in their true shares. Many entries were measured with a wide error.
# System: MIWI (PIWIL1) piRISC loaded with piRNA #2 (30 nt)
# Assay: pre-steady-state target cleavage rate (min^-1); MIWI and MILI are mouse PIWI proteins and EfPiwi is from a freshwater sponge; tags in brackets are library labels; higher = faster piRNA-guided slicing of the target
# Settings: guide: piRNA #2 5'p-UUAGGUAACCCAGUAGAUCCAGAGGAAUUC; auxiliary factor: 500 nM mouse GTSF1
# Outline: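 In Cleave-'n-Seq, a transcribed, DNA-blocked target RNA library (0.1 nM) was combined with 1 nM active affinity-purified piRISC bearing one synthetic guide, with or without 500 nM GTSF1 partner protein. Reactions ran in HEPES–potassium acetate buffer at 33 °C for 0–8 or 0–960 min. Uncleaved targets were sequenced and normalised to depth and to weakly complementary targets, three trials were pooled, and k3 was capped at 0.0001 min^-1. The pre-steady-state cleavage rate was obtained by fitting a burst-and-steady-state model.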
row,Sequence,pre-steady-state target cleavage rate
1,CUUAAGGAGACCUACUACUGGAGUUACCUAA,0.00374 ± 0.0042
2,CUUUUCCUCUGGAACUAGUGGGUUACCUAA,0.204 ± 0.025
3,CUUAAGGAGAGCAUCUACUGGGUUACCAAA,0.00187 ± 0.0051
4,CUUAAGGAGACCUACUAUUGGGUUACCUAA,0.0011 ± 0.0092
5,CUUAAGGAGUGGAUGUACAGGGUUACCUAA,0.00457 ± 0.0054
6,CUUAAGGAGAGGAUCUACUGCGAUACCUAA,0.000558 ± 0.0092
7,CUUAAGGAGACCUAGAUGUGGUUACCUAA,0.00102 ± 0.0055
8,CUUAAGGAGACCUUCUACUGGGUUACCCUAA,0.00118 ± 0.0084
9,GAAUACCUCUGGAUCUACUGGGUUACGUAA,0.609 ± 0.038
10,CUUAAGGAGACCUAGAUGUGCGUUACGUAA,0.0013 ± 0.0038
11,CUUAAGGAGACGAUCUACUGGGUUACCUCA,0.00102 ± 0.0064
12,CUUAAGGAGACCAUCUACUGGCUUACCAAA,0.00182 ± 0.0033
13,CUUAAGGAGACCUAGUACUGAGUUACCUAA,0.00109 ± 0.008
14,CUUAAGGAGACCAUCUACUGGGUGUACCUAA,0.0012 ± 0.008
15,CUUAAGGAGAGCAUCUACAGGGUUACCUAA,0.00205 ± 0.0053
16,CUUAAGGAGACCUAGUACUGGGUUUACCUAA,0.000939 ± 0.0065
17,CUUAAGGAGACCUAGAUCUGGGUUACCUAC [g2:g13:cont:t1C],0.00086 ± 0.0081
18,CUUAAGGAGACCUACUACAUGGGUUACCUAA,0.0006 ± 0.016
19,CUUAACCUCUGGAUCUAGCUGGGUUACCUAA,0.000844 ± 0.0075
20,CUUAAGGAGACCAUCUAGCUGGGUUACCUAA,0.000786 ± 0.0094
21,CUUAUCCUCUGGAUCUACUGAGUUACCUAA,0.779 ± 0.05
22,CUUAAGGAGACCAUCUACUGGGUUACCUUA,0.00124 ± 0.0047
23,CUUAAGGAGACGAUCUAGUGGGUUACCAAA,0.00108 ± 0.0031
24,CUUAAGGACUGCUUCUACUGGGUUACCUAA,0.00105 ± 0.023

row,Sequence,pre-steady-state target cleavage rate
1,CUUAAGGAGUGGAUCUACUGGGUUAGGUAA,0.000793 ± 0.019
2,CUUAAGGACUGGAUCUACACCGUUACCUAA,0.00293 ± 0.0075
3,CUUAAGCUCUGGAUCUACUGAGGUUACCUAA,0.000383 ± 0.029
4,CUUAAGGAGAGGAUCUACUGGGUAUCCUAA,0.00179 ± 0.0069
5,CUUAAGGAGACCUAGAUCUGGGUAACCAAA,0.000198 ± 0.021
6,CUUAAGGAGUGGAUCUAUGGGUUACCUAA,0.000492 ± 0.016
7,CUUAAGGAGACGAAGUACUGGGUUACCUAA,0.000205 ± 0.02
8,CUUAAGGAGACCAUCUACUGGGAAUCCUAA,0.0011 ± 0.0072
9,CUUAAGGAGACCAUCUACUGGGUAACCAAA,0.000402 ± 0.016
10,CUUUUCCUCUGGAUCUACUCCCAAUGGAUA [g12:g27:cont:t1A],0.000279 ± 0.03
11,CUUAAGGAGACCUAGAUGUGGAGUUACCUAA,0.00171 ± 0.0046
12,CUUAAGGAGACCUAGAUGAGUGUUACCUAA,0.000291 ± 0.019
13,CUUAAGGAGACCACCUACUGGGUUACCUAA,0.00311 ± 0.0043
14,CUUAAGGAGACCUUCUACUGGGUUACCAAA,0.00151 ± 0.0071
15,CAAUUCCUCUGGAUCUACUGGGUACCUAA,0.00238 ± 0.0047
16,CUUAAGGAGACCUACUACUGGGUUACGAUA,0.000251 ± 0.015
17,CUUAAGGAGUCGAUCUACUGGGUUACCUUA,0.000626 ± 0.014
18,CUUAAGGAGACCUAGAUGAGGGGUACCUAA,0.000421 ± 0.024
19,CUUAAGGAGACGAUCUACUGGGUUACCAA,0.00124 ± 0.0031
20,CUUAAGGAGACCUUCUACUGGGGUUACCUAA,0.00145 ± 0.008
21,CUUAAGGAGAGGAUCUACUUGGGUUACCUAA,0.00017 ± 0.031
22,CUUAAGGAGACGAUCUACCUGGGUUACCUAA,0.0011 ± 0.0094
23,CAAUACCUCAGGAUCUACUGGGUUACCUAA,0.656 ± 0.061
24,CUUAAGGAGAGGAUACUACUGGGUUACCUAA,0.00359 ± 0.0039

# In a second layout: entries from further up
row	Sequence	pre-steady-state target cleavage rate
24	CUUAAGGACUGCUUCUACUGGGUUACCUAA	0.00105 ± 0.023
1	CUUAAGGAGUGGAUCUACUGGGUUAGGUAA	0.000793 ± 0.019
2	CUUAAGGACUGGAUCUACACCGUUACCUAA	0.00293 ± 0.0075
3	CUUAAGCUCUGGAUCUACUGAGGUUACCUAA	0.000383 ± 0.029
4	CUUAAGGAGAGGAUCUACUGGGUAUCCUAA	0.00179 ± 0.0069
5	CUUAAGGAGACCUAGAUCUGGGUAACCAAA	0.000198 ± 0.021
6	CUUAAGGAGUGGAUCUAUGGGUUACCUAA	0.000492 ± 0.016
7	CUUAAGGAGACGAAGUACUGGGUUACCUAA	0.000205 ± 0.02
8	CUUAAGGAGACCAUCUACUGGGAAUCCUAA	0.0011 ± 0.0072
9	CUUAAGGAGACCAUCUACUGGGUAACCAAA	0.000402 ± 0.016
10	CUUUUCCUCUGGAUCUACUCCCAAUGGAUA [g12:g27:cont:t1A]	0.000279 ± 0.03
11	CUUAAGGAGACCUAGAUGUGGAGUUACCUAA	0.00171 ± 0.0046
12	CUUAAGGAGACCUAGAUGAGUGUUACCUAA	0.000291 ± 0.019
13	CUUAAGGAGACCACCUACUGGGUUACCUAA	0.00311 ± 0.0043
14	CUUAAGGAGACCUUCUACUGGGUUACCAAA	0.00151 ± 0.0071
15	CAAUUCCUCUGGAUCUACUGGGUACCUAA	0.00238 ± 0.0047
17	CUUAAGGAGUCGAUCUACUGGGUUACCUUA	0.000626 ± 0.014
18	CUUAAGGAGACCUAGAUGAGGGGUACCUAA	0.000421 ± 0.024
19	CUUAAGGAGACGAUCUACUGGGUUACCAA	0.00124 ± 0.0031
20	CUUAAGGAGACCUUCUACUGGGGUUACCUAA	0.00145 ± 0.008
22	CUUAAGGAGACGAUCUACCUGGGUUACCUAA	0.0011 ± 0.0094
24	CUUAAGGAGAGGAUACUACUGGGUUACCUAA	0.00359 ± 0.0039

# Next part.

row,Sequence,pre-steady-state target cleavage rate
1,CUUAAGGAGUGCAUCAACUGGGUUACCUAA,0.000244 ± 0.043
2,CUUAAGGAGACCUUGUACUGGGUUACCUAA,0.00143 ± 0.0065
3,CUUAAGGAGACCUAGAUCUGGGUGUACCUAA,0.000206 ± 0.04
4,CUUAAGGAGACGAUCUUCUGGGUUAGCUAA,0.00149 ± 0.0044
5,CUUAAGGAGACGAUCUACUGGGUUACCUGAA,0.00108 ± 0.008
6,CAAUUCCUCUGGAAGUACUGGGUUACCUAA,0.651 ± 0.044
7,CUUAAGGUCUGGAUCUCCUGGGUUACCUAA,0.0565 ± 0.013
8,CUUAAGGAGAGGAUCUAUUGGGUUACCUAA,0.00262 ± 0.0043
9,GAAUUCCUCUGCAUCUACUGCGUUACCUAA,0.591 ± 0.054
10,CUAUUCCUCUUGGAUCUACUGGGUUACCUAA,0.433 ± 0.046
11,CUUAAGGAGACGAUCUACUGGGAUACGUAA,0.000467 ± 0.01
12,CUUAAGGAGACCCUCUACUGGGUUACCUAA,0.00201 ± 0.0036
13,CUUAAGGAGUGGAUCUACUGGCUUACCUUA,0.00339 ± 0.0076
14,CUUAAGGAGAGGAUCUACUGGGAUUACCUAA,0.000233 ± 0.023
15,CUUAAGGAGACGAUCUACUGGGUUACCGAA,0.00143 ± 0.0035
16,CAAUUCCUCUGGUUCUACUGGGUUACGUAA,0.688 ± 0.045
17,CUUAAGGAGACCUAGUACUGGGUUACCAA,0.00077 ± 0.0068
18,CUUAAGGAGAGGAUCUACUGCGGUUACCUAA,0.00054 ± 0.0075
19,CUUAAGGAGACCAUCUUACUGGGUUACCUAA,0.00126 ± 0.0096
20,CUUAAGGAGUGGAUCUACGGGUUACCUAA,0.000697 ± 0.014
21,CUUAAGGAGACGAUCUACUGGGUUCCUAA,0.00146 ± 0.0044
22,CUUAAGGAGACGACUACUGGGUUACCUAA,0.00153 ± 0.0076
23,CUUAAGGAGAGGUUCUACUGGGUAACCUAA,0.00187 ± 0.0047
